The text below walks through data of PMC9323106.

The test concerns the target T1, recombinant human TREX1(1-242) wild-type protomer, MBP fusion (human) (UniProt Q9NSU2).
T1 sequence: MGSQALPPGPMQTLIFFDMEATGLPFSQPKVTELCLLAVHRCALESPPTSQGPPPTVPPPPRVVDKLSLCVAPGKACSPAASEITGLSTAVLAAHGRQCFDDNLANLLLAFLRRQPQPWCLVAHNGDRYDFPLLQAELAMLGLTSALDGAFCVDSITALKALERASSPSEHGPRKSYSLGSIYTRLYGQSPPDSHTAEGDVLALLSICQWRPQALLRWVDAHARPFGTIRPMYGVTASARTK
Description: sequential affinity co-purification of two differently tagged protomers (amylose, then nickel column); MBP-hT1 WT and His-NusA-hT1 mutant co-expressed in E. coli Rosetta2 (DE3); amylose column (removes mutant homodimers), then nickel column (removes wild-type homodimers), one-step elution; then PreScission Protease and phosphocellulose column.

No constants are given. Whether binding was seen depends on the method and setting. Some entries that bind do so weakly or less than the wild type. Sequences can lack the tags named with a protein.

B1: recombinant human TREX1(1-242) p.A136V protomer, His-tagged NusA fusion (enzyme, UniProt Q9NSU2-3 1-242)
chain: MGSQALPPGPMQTLIFFDMEATGLPFSQPKVTELCLLAVHRCALESPPTSQGPPPTVPPPPRVVDKLSLCVAPGKACSPAASEITGLSTAVLAAHGRQCFDDNLANLLLAFLRRQPQPWCLVAHNGDRYDFPLLQVELAMLGLTSALDGAFCVDSITALKALERASSPSEHGPRKSYSLGSIYTRLYGQSPPDSHTAEGDVLALLSICQWRPQALLRWVDAHARPFGTIRPMYGVTASARTK
Take B1: the binding result is “binds”.

B2: recombinant human TREX1(1-242) p.R174G protomer, His-tagged NusA fusion (enzyme, UniProt Q9NSU2-3 1-242)
chain: MGSQALPPGPMQTLIFFDMEATGLPFSQPKVTELCLLAVHRCALESPPTSQGPPPTVPPPPRVVDKLSLCVAPGKACSPAASEITGLSTAVLAAHGRQCFDDNLANLLLAFLRRQPQPWCLVAHNGDRYDFPLLQAELAMLGLTSALDGAFCVDSITALKALERASSPSEHGPGKSYSLGSIYTRLYGQSPPDSHTAEGDVLALLSICQWRPQALLRWVDAHARPFGTIRPMYGVTASARTK
Regarding B2, the binding entry is on record as “binds”.
